Primary screen of a compound library

From ChEMBL document CHEMBL3988442, “University of Dundee, Small-Polar-MMV Screening Library” (2021).

Mtb glucose medium: 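Growth of Mycobacterium tuberculosis over 3 days (7H9 medium with glucose and tyloxapol); the read-out is not stated. Compounds at 50 µM. Higher reads as more growth inhibition (inferred: compounds with an IC50 in retests scored well above the rest). Of about 69,000 compounds tested this way, about 760 (1.1%) reached 50% or more in at least one test.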
Mtb cholesterol medium: 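Whole-cell growth test on Mycobacterium tuberculosis, read after 4 days in a medium based on cholesterol and the lipid DPPC; the read-out is not stated. Concentration: 50 µM. Direction is inferred from retests: higher values go with more growth inhibition. Size under these conditions: about 69,000 compounds, about 370 of them at 50% or above in at least one test.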

Each number is a percent effect as filed. The controls that fix the scale are not given in the record; negative values are as filed. The compounds are a random part of those screened. Two or more numbers in one place are separate tests of the same structure; such repeats can differ widely.

structure,Mtb glucose medium,Mtb cholesterol medium
CCN(Cc1noc(C2CCC2)n1)C(=O)c1cnc2ccccc2c1,-23.43,-21.57
Cc1nc(C)n(CC2CN(CC(=O)Nc3ccncc3)CCO2)n1 (stereo not shown),-30.87,8.392
COc1ccccc1N1CCCC(NC(=O)Nc2cccnc2)C1 (stereo not shown),4.667 and 11.94,20.36
O=C(c1ccc(-n2cccn2)c(F)c1)N1CCCN2CCCC2C1 (stereo not shown),30.6,11.21
Cc1nc(N)cc(C2CN(C(=O)c3ccn(C)n3)CCO2)n1 (stereo not shown),18.65,-5.97
COc1cccc(S(=O)(=O)N2C[C@@H](N(C)C)[C@H](C(C)C)C2)c1,-38.05 and 16.98,-7.527
CN1CCC2(CC1)OC(C(=O)NCc1cccnc1)Cn1ccnc12 (stereo not shown),-35.39,28.04 and 4.273
CC(Cn1cccn1)NC(=O)Nc1cccnc1 (stereo not shown),-15.51,-27.45
O=C1CC(C(=O)N2CCc3sccc3C2)CN1Cc1cccnc1 (stereo not shown),-2.735,4.8
Cc1cnn(CCC(=O)NS(=O)(=O)N2CCCc3ccccc32)c1,-20.04,-4.72
CCCN1C[C@H](NC(=O)c2cccs2)[C@@H](c2ccc(OC)cc2)C1,-3.517,-15.06
CC(C)CN1CCN(C(=O)c2ccncc2F)Cc2cccnc21.O=C(O)C(F)(F)F.O=C(O)C(F)(F)F,16.12,-8.492
O=C(CSc1nc2c(cnn2CCO)c(=O)[nH]1)NC1CCCCC1,-13.91,-3.923
Cl.[H][C@]12CCCN[C@@]1([H])CN(C(=O)C(C)C)C2,-1.649,-8.745
Cc1nn(C)c2c(NC3CCCC3)nc(C3CC3)nc12,-13.95 and 24.48,10.54
c1cnnc(N2CCCC(NCc3nc(-c4ccco4)no3)C2)c1 (stereo not shown),-69.22,-52.73
Cc1cc(C)n(CC2CCCCN2Cc2cscn2)n1 (stereo not shown),-27.64,-7.102
[H][C@@]12CCCO[C@]1([H])[C@@H](OCC1CC1)CN2C(=O)c1occc1C,7.41,-10.18
O=C(C1CCC1)N1CCC2(CC1)OCCO2,-5.739 and -7.441,-4.924
Cc1cnc(NC(=O)C(C)Oc2ccc3c(c2)OCO3)s1 (stereo not shown),44.08,7.816
CSCCC(C)NC(=O)N1CCSC(C)(C)C1 (stereo not shown),-17.94,-26.24
COc1ccccc1Oc1ncccc1CNC(=O)C1COC(=O)N1 (stereo not shown),17.09,-0.3526
C1CCC(c2nc3c(c(N4CC(N5CCOCC5)C4)n2)CCNCC3)C1,6.606,9.223
CCn1ccnc1CN1CCN(C(C)C(=O)NC2CCCC2)CC1 (stereo not shown),-1.722,-16.77
CCc1ccc(C(=O)O)cc1S(=O)(=O)Nc1ccc2c(c1)OCCO2,12.6,3.597
Cc1cc(NC(=O)CNc2cccc(C(=O)N3CCCC(O)C3)c2)no1 (stereo not shown),-12.21,-15.01
COCC(O)CN1CC(C)(C)CN(C(=O)CCc2ccccc2)CC1=O (stereo not shown),8.067,1.966
[H][C@@]12CCN(C3CCOCC3)C[C@@]1([H])O[C@H](C(=O)N1CCCC1)C2,27.88,15.32
CCN(Cc1cccnc1)C1CCN(c2ccccc2)C1=O (stereo not shown),-16.13,-6.757
Cc1nn2c(nc1=O)-c1ccccc1NC2C(=O)O (stereo not shown),17.7,-7.14
O=C(C1CCOC1)N1CCN(CCn2cccn2)c2ncccc2C1.O=C(O)C(F)(F)F (stereo not shown),-7.314,-4.353
CCc1nnc2n1CCN(C(=O)COCCc1ccccc1)C2,4.647,6.199
Cc1nn(C)c(Oc2cccc(F)c2)c1NC(=O)C1CCCO1 (stereo not shown),-26.01,-6.03
Cc1ccncc1NC(=O)C1CSc2ncc(C)c(=O)n2C1 (stereo not shown),-9.428,-14.23
Cc1cc(CN(C)C(C(=O)O)c2cccc(C(F)(F)F)c2)on1 (stereo not shown),-1.696,-0.002532
CCS(=O)(=O)N1CC[C@]2(C[C@@H](OCC3CC3)CO2)C1,19.26,1.475
O=C1NCC2(CCCN(C(=O)Nc3cccc(-c4cscn4)c3)CC2)O1 (stereo not shown),-53.07,-57.79
COC(=O)Cn1c(=O)nc2n1C(=O)N(c1ccc(C)cc1)C2,-16.6,-15.99
Cc1cnc(CCNC(=O)C2CCN(S(=O)(=O)c3ccc(F)cc3)C2)s1 (stereo not shown),-35.37,2.193 and -24.61
COc1ccc(NC(=O)CCC(C)C)c(N2CCN(C(C)=O)CC2)n1,-30.12 and 2.37,-6.228
O=C(O)C(F)(F)F.O=C(O)C(F)(F)F.O=C(O)C(F)(F)F.O=C(O)c1c(-c2cncnc2)ncc2c1CCN(Cc1cccnc1)C2,-8.603,-8.025
Cc1cc(C)nc(N2CC=C[C@H]2C(=O)NCc2ccc3c(c2)OCO3)n1,21.17,18.06
Cc1n[nH]c(C)c1CNC(=O)NC1CCCN(c2ccccc2F)C1 (stereo not shown),5.712 and -9.128,-5.572
O=C(CCC1CCCO1)NCc1ccc(Br)cc1F (stereo not shown),4.574 and 16.5,-24.52
CCNCCOc1ccc(-c2cc(N)nc3[nH]ccc23)cc1,36.22,-0.8492
Cc1nnc(CN(Cc2cccc(Cl)c2)C(C)C)o1,-7.455,-5.762 and -9.778
Cc1nc(C)n(C2CCCN(C(=O)c3sccc3C3CC3)C2)n1 (stereo not shown),-3.424,2.059
CN1CCN(c2cc(NC(=O)Cn3ccc4ccccc43)ncn2)CC1,37.48 and 6.66,7.894
CC(=O)N(Cc1noc(C2CC2)n1)C1CCN(Cc2ccccc2)C1 (stereo not shown),29.31,4.123
Cc1nc2ccccc2c(=O)n1CCC(=O)N1CCNC(=O)C1,-29.83,-7.007
[H][C@]12CC[C@](C(=O)N3CCC(Cn4cc(CO)nn4)CC3)(C1)C(=C)C2(C)C,6.424,17.78
Cc1nn(C)c(C)c1CN(C)c1nc(C2CCCC2)nc2c1cnn2C,-9.471,-23.13
O=C(c1nc(=O)[nH]c2ccccc12)N1CCCC(CC2CC2)(C(=O)O)C1 (stereo not shown),-22.92 and 0.1983,6.167
Cc1n[nH]c(C2CN(C(=O)c3csnn3)CCO2)n1 (stereo not shown),22.31,7.48
Cc1ccc(N2CCC(c3cc(Cc4ccccc4)n[nH]3)CC2)nn1,31.91,7.86
CCN1CCCC1Cn1ccc2c(OC)c(OC)ccc2c1=O (stereo not shown),9.056,0.4694
Cc1cc(C)n(-c2ccccc2NC(=O)NCCS(=O)(=O)CC(C)C)n1,-6.005,7.585
Cc1ccc2nc(C3CCN(CC4CC4)CC3)nn2c1.O=C(O)C(F)(F)F,-26.11,-8.393
Cc1cccnc1N1CCN(C(=O)CCc2cn3ccccc3n2)CC1,-15.1,-26.95
[H][C@@]12C[C@H](C(=O)NCc3ccco3)CN(C(=O)c3ccoc3C)[C@]1([H])CCO2,7.316,8.036
COc1ccnc(N2CCN(C(=O)N3CCOCC3)CC2)n1,-9.918,-14.02
c1ccc(-c2nnc(CNC3CCCN(c4cccnn4)C3)o2)cc1 (stereo not shown),1.249,4.53
CC(C)[C@@H]1CN(C(=O)NCc2ccco2)C[C@H]1NS(=O)(=O)N(C)C,-28.43,-22.59
Cc1cccc2c(CCNC(=O)NCCC[S+](C)[O-])c[nH]c12 (stereo not shown),10.5 and 3.024,-0.6879 and -1.67
CCCOc1cc(CNC(=O)Nc2ccc(C)cc2)ccn1,-23.21,25.92
[H][C@@]12CN(Cc3cccnc3)C[C@]1([H])C(=O)N(CC)C21CCN(C(C)=O)CC1,-10.2,8.398
COc1ccc(C)cc1C1(CNc2cn[nH]c(=O)c2Cl)CCOCC1,-1.977,-9.588
CNS(=O)(=O)Cc1cccc(CNc2ccc(Cl)cn2)c1,46.45,9.027
COCc1nn(C(C)C)c2c1CCN(Cc1ccc(C)o1)C2.O=C(O)C(F)(F)F,-36.87,1.406
Cc1cnc(N2CCOC3(CCCN(C)C3)C2)nc1.O=C(O)C(F)(F)F (stereo not shown),-3.766 and 1.839,2.425
Cc1cnn(CC2CN(CCCS(C)(=O)=O)CCO2)c1 (stereo not shown),-9.164,-26.45
Cc1cnn(CCNCC(O)c2ccc(C(F)(F)F)cc2)c1 (stereo not shown),45.66,37.87
Cc1nc(C(C)(C)NC(=O)Nc2cccc(C#N)c2)no1,1.856 and 17.1,16.02